Consider 1 molecule from doi:10.1101/2024.09.20.614077.

By UniProt entry, the sequences of proteins in these tests, tags left out. Where a name states a change or a piece, a line headed by the entry shows the natural chain unless it says otherwise.
UniProt A2A9A2: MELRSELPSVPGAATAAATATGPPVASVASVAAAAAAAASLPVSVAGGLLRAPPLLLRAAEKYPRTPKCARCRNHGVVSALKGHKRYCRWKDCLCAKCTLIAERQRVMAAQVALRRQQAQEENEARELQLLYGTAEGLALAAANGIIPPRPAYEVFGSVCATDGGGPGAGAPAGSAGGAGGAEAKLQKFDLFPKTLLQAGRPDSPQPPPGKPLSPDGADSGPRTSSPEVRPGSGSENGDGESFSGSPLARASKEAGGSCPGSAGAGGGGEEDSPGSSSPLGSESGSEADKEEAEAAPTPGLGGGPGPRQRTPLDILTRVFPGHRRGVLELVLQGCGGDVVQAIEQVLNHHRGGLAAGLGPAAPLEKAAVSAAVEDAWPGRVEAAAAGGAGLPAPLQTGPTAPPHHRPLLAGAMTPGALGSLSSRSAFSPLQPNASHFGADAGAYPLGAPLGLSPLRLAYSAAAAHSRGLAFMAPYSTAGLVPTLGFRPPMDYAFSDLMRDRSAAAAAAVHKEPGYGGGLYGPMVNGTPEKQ

In the assay the target is Flag-Dmrta2 mutant lacking the DM domain (Flag-Dmrta2 αDM) (mouse) (UniProt A2A9A2). Description: co-IP.

These are yes or no findings as the source states them, for the method shown. Binding seen in cells or lysates may run through a third protein. Tags and fused reporters may be left off the sequences shown.

B1: Zfp423 (pCDNA3-Myc-Zfp423) (protein, UniProt Q80TS5 1-1292)
chain: MSRRKQAKPRSVKVEEGEASDFSLAWDSSVAAAGGLEGEPECDRKTSRALEDRNSVTSQEERNEDDEDVEDESIYTCDHCQQDFESLADLTDHRAHRCPGDGDDDPQLSWVASSPSSKDVASPTQMIGDGCDLGLGEEEGGTGLPYPCQFCDKSFIRLSYLKRHEQIHSDKLPFKCTFCSRLFKHKRSRDRHIKLHTGDKKYHCHECEAAFSRSDHLKIHLKTHSSSKPFKCSVCKRGFSSTSSLQSHMQAHKKNKEHLAKSEKEAKKDDFMCDYCEDTFSQTEELEKHVLTLHPQLSEKADLQCIHCPEVFVDESTLLAHIHQAHANQKHKCPMCPEQFSSVEGVYCHLDSHRQPDSSNHSVSPDPVLGSVASMSSATPDSSASVERGSTPDSTLKPLRGQKKMRDDGQSWPKVVYSCPYCSKRDFTSLAVLEIHLKTIHADKPQQSHTCQICLDSMPTLYNLNEHVRKLHKSHAYPVMQFGNISAFHCNYCPEMFADINSLQEHIRVSHCGPNANPPDGNNAFFCNQCSMGFLTESSLTEHIQQAHCSVGSTKLESPVVQPTQSFMEVYSCPYCTNSPIFGSILKLTKHIKENHKNIPLAHSKKSKAEQSPVSSDVEVSSPKRQRLSGSANSISNGEYPCNQCDLKFSNFESFQTHLKLHLELLLRKQACPQCKEDFDSQESLLQHLTVHYMTTSTHYVCESCDKQFSSVDDLQKHLLDMHTFVLYHCTLCQEVFDSKVSIQVHLAVKHSNEKKMYRCTACNWDFRKEADLQVHVKHSHLGNPAKAHKCIFCGETFSTEVELQCHITTHSKKYNCRFCSKAFHAVILLEKHLREKHCVFDAAAENGTANGVPPTSTKKAEPADLQGMLLKNPEAPNSHEASEDDVDASEPMYGCDICGAAYTMEVLLQNHRLRDHNIRPGEDDGSRKKAEFIKGSHKCNVCSRTFFSENGLREHLQTHRGPAKHYMCPICGERFPSLLTLTEHKVTHSKSLDTGTCRICKMPLQSEEEFIEHCQMHPDLRNSLTGFRCVVCMQTVTSTLELKIHGTFHMQKLAGSSAASSPNGQGLQKLYKCALCLKEFRSKQDLVRLDVNGLPYGLCAGCMARSANGQVGGLAPPEPADRPCAGLRCPECNVKFESAEDLESHMQVDHRDLTPETSGPRKGAQTSPVPRKKTYQCIKCQMTFENEREIQIHVANHMIEEGINHECKLCNQMFDSPAKLLCHLIEHSFEGMGGTFKCPVCFTVFVQANKLQQHIFAVHGQEDKIYDCSQCPQKFFFQTELQNHTMSQHAQ
As to B1, the binding entry was “no binding”.
